Results on 31 molecules are retold here after the supplement of paper PMC4604168 (melanoma cell lines).

The list shows a part of the results. Repeats are few or missing, and single values can be far off.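 Imaging used 1,536-well plates; nuclei positive for cleaved PARP by antibody were divided by total DNA-stained nuclei to yield the apoptosis fraction. Doses for screening kept most cells viable, and cell lines differ markedly in resting and induced cleaved-PARP levels.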

One assay has as its system SkMel28. Briefly: cleaved PARP positive nuclei fraction relative to DMSO control; melanoma cells; higher = more apoptosis. Conditions: library dose: low library concentration; 72 h.
Regarding `CN1CCN(c2ccc3nc(-c4c(N)c5c(F)cccc5[nH]c4=O)[nH]c3c2)CC1` [Dovitinib] + COc1ccc2c(c1)CCC1C2CCC2(C)C(NCCCCCCN3C(=O)C=CC3=O)CCC12 [U73122] (first compound 0.1 µM, partner dose 0.4 µM), the “cleaved PARP positive nuclei fraction” value came to 60.1%.

For the molecule `O=C(O)[C@@H]1[O][Sb](=[O])([O][Sb]2(=[O])[O][C@H]([C@H](O)CO)[C@H](O)[C@H](C(=O)O)[O]2)[O][C@H]([C@H](O)CO)[C@@H]1O` (stereo partly specified) [stibogluconate] + COc1cc(N2CCC(N3CCN(C)CC3)CC2)ccc1Nc1ncc(Cl)c(Nc2ccccc2S(=O)(=O)C(C)C)n1 [NVP-TAE684] (first compound 2 µM, partner dose 0.08 µM), the “cleaved PARP positive nuclei fraction” value was 147%.

For `CCCS(=O)(=O)Nc1ccc(F)c(C(=O)c2c[nH]c3ncc(Cl)cc23)c1F` + N#Cc1c(O)c2c(-c3ccc(-c4ccccc4O)cc3)csc2[nH]c1=O [A769662] (first compound 0.08 µM, partner dose 2 µM), the “cleaved PARP positive nuclei fraction” value worked out at 362%.

For the molecule `CN1CCN(c2ccc3nc(-c4c(N)c5c(F)cccc5[nH]c4=O)[nH]c3c2)CC1` [Dovitinib] + Cc1cc(N2CCOCC2)cc2[nH]c(-c3c(NC[C@@H](O)c4cccc(Cl)c4)cc[nH]c3=O)nc12 [BMS536924] (first compound 0.1 µM, partner dose 0.2 µM), the “cleaved PARP positive nuclei fraction” value is 27.5%.

On to `C[C@@H](Oc1cc(-c2cnn(C3CCNCC3)c2)cnc1N)c1c(Cl)ccc(F)c1Cl` [Crizotinib] + COc1ccc(-c2ccc3c(N4CCOCC4)nc(N4C[C@@H](C)O[C@@H](C)C4)nc3n2)cc1CO [KU0063794] (first compound 0.2 µM, partner dose 0.02 µM), for which the “cleaved PARP positive nuclei fraction” value was determined as 154%.

Take `O=C(O)[C@@H]1[O][Sb](=[O])([O][Sb]2(=[O])[O][C@H]([C@H](O)CO)[C@H](O)[C@H](C(=O)O)[O]2)[O][C@H]([C@H](O)CO)[C@@H]1O` (stereo partly specified) [stibogluconate] + O=C(O)c1ccc(-c2c[nH]c3ncc(-c4ccccc4)cc23)cc1C1CCCC1 [GSK650394] (first compound 2 µM, partner dose 0.16 µM): the “cleaved PARP positive nuclei fraction” value was determined as 108%.

Consider `Cn1c(=O)n(-c2ccc(C(C)(C)C#N)cc2)c2c3cc(-c4cnc5ccccc5c4)ccc3ncc21` + CCCCCCCCCCCC1=C(O)C(=O)C=C(O)C1=O [Embelin] (first compound 0.004 µM, partner dose 1.2 µM), for which the “cleaved PARP positive nuclei fraction” value was determined as 181%.

As for `CN1CCN(c2ccc3nc(-c4c(N)c5c(F)cccc5[nH]c4=O)[nH]c3c2)CC1` [Dovitinib] + NCC(=O)Nc1ccc(-n2nc(C(F)(F)F)cc2-c2ccc3c(ccc4ccccc43)c2)cc1 [OSU03012] (first compound 0.1 µM, partner dose 1 µM), the “cleaved PARP positive nuclei fraction” value came out at 106%.

Regarding `C=C(c1ccc(C(=O)O)cc1)c1cc2c(cc1C)C(C)(C)CCC2(C)C` [Bexarotene] + Cc1cc([N+](=O)[O-])ccc1NS(=O)(=O)c1cc(Cl)ccc1Cl [FH535] (first compound 2 µM, partner dose 1 µM), the “cleaved PARP positive nuclei fraction” value came to 172%.

Turning to `Cc1cc(Nc2cc(N3CCN(C)CC3)nc(/C=C/c3ccccc3)n2)n[nH]1` + COC(=O)c1sccc1S(=O)(=O)Nc1ccc(Nc2ccccc2)cc1OC [GSK0660] (first compound 0.04 µM, partner dose 1 µM), the “cleaved PARP positive nuclei fraction” value worked out at 122%.

`CC(C)C[C@H](NC(=O)[C@H](Cc1ccccc1)NC(=O)c1cnccn1)B(O)O` [Bortezomib] + Cc1cc([N+](=O)[O-])ccc1NS(=O)(=O)c1cc(Cl)ccc1Cl [FH535] (first compound 0.001 µM, partner dose 1 µM): the “cleaved PARP positive nuclei fraction” value came to 171%.

Turning to `CC(C)C[C@H](NC(=O)[C@H](Cc1ccccc1)NC(=O)c1cnccn1)B(O)O` [Bortezomib] + O=C(CCCCCCC(=O)Nc1ccccc1)NO [vorinostat] (first compound 0.001 µM, partner dose 0.08 µM), the “cleaved PARP positive nuclei fraction” value was 209%.

On to `Nc1ncn([C@H]2C[C@H](O)[C@@H](CO)O2)c(=O)n1` [decitabine] + COc1ccc2c(c1)CCC1C2CCC2(C)C(NCCCCCCN3C(=O)C=CC3=O)CCC12 [U73122] (first compound 0.1 µM, partner dose 0.4 µM), for which the “cleaved PARP positive nuclei fraction” value came to 99.3%.

A further assay relates to SkMel2. The description is as above. The note with it: library dose: low library concentration; 72 h.
For the molecule `Nc1ncn([C@H]2C[C@H](O)[C@@H](CO)O2)c(=O)n1` [decitabine] + COc1ccc(-c2ccc3c(N4CCOCC4)nc(N4C[C@@H](C)O[C@@H](C)C4)nc3n2)cc1CO [KU0063794] (first compound 0.1 µM, partner dose 0.02 µM), the “cleaved PARP positive nuclei fraction” value came to 78.3%.

As to `CS(=O)(=O)CCNCc1ccc(-c2ccc3ncnc(Nc4ccc(OCc5cccc(F)c5)c(Cl)c4)c3c2)o1` [lapatinib] + O=S(=O)(c1ccccc1)N(CC(F)(F)F)c1ccc(C(O)(C(F)(F)F)C(F)(F)F)cc1 [T0901317] (first compound 0.8 µM, partner dose 1.4 µM), the “cleaved PARP positive nuclei fraction” value stood at 106%.

With `Nc1ccn([C@@H]2O[C@H](CO)[C@@H](O)C2(F)F)c(=O)n1` [gemcitabine] + CC1(C)NC(=O)N(c2ccc([N+](=O)[O-])c(C(F)(F)F)c2)C1=O [nilutamide] (first compound 0.0004 µM, partner dose 1 µM), the “cleaved PARP positive nuclei fraction” value was determined as 92.3%.

`CCCS(=O)(=O)Nc1ccc(F)c(C(=O)c2c[nH]c3ncc(Cl)cc23)c1F` + O=C1NC(=O)/C(=C/c2ccc(-c3ccc(F)cc3O)o2)S1 [AS252424] (first compound 0.08 µM, partner dose 1 µM): the “cleaved PARP positive nuclei fraction” value amounted to 151%.

`CNC(=O)c1cc(Oc2ccc(NC(=O)Nc3ccc(Cl)c(C(F)(F)F)c3)cc2)ccn1` [sorafenib] + C[C@@H]1CCN(C(=O)CC#N)C[C@@H]1N(C)c1ncnc2[nH]ccc12 [CP690550] (first compound 0.4 µM, partner dose 1 µM): the “cleaved PARP positive nuclei fraction” value was 103%.

As to `Cc1cc(Nc2cc(N3CCN(C)CC3)nc(/C=C/c3ccccc3)n2)n[nH]1` + CN(C)S(=O)(=O)c1ccc2c(c1)/C(=C/c1cc3c([nH]1)CCCC3)C(=O)N2 [SU6656] (first compound 0.04 µM, partner dose 0.4 µM), the “cleaved PARP positive nuclei fraction” value was found to be 28.1%.

As for `Nc1ncn([C@H]2C[C@H](O)[C@@H](CO)O2)c(=O)n1` [decitabine] + CCCCCCCCCCCC1=C(O)C(=O)C=C(O)C1=O [Embelin] (first compound 0.1 µM, partner dose 1.2 µM), the “cleaved PARP positive nuclei fraction” value turned out to be 45.6%.

Take `Nc1nc(F)nc2c1ncn2[C@@H]1O[C@H](CO)[C@@H](O)[C@@H]1O` [fludarabine] + CCCCCCCCCCCC1=C(O)C(=O)C=C(O)C1=O [Embelin] (first compound 0.2 µM, partner dose 1.2 µM): the “cleaved PARP positive nuclei fraction” value is 3120%.

In the case of `O=C(O)c1ccc2c(c1)nc(Nc1cccc(Cl)c1)c1ccncc12` + COc1ccc2c(c1)CCC1C2CCC2(C)C(NCCCCCCN3C(=O)C=CC3=O)CCC12 [U73122] (first compound 0.4 µM, partner dose 0.4 µM), the “cleaved PARP positive nuclei fraction” value was 66.7%.

For the molecule `Nc1ccn([C@@H]2O[C@H](CO)[C@@H](O)C2(F)F)c(=O)n1` [gemcitabine] + CO[C@@H]1[C@H](N(C)C(=O)c2ccccc2)C[C@H]2O[C@]1(C)n1c3ccccc3c3c4c(c5c6ccccc6n2c5c31)C(=O)NC4 [Midostaurin] (first compound 0.0004 µM, partner dose 0.08 µM), the “cleaved PARP positive nuclei fraction” value came to 178%.

For `CN1CCN(c2ccc3nc(-c4c(N)c5c(F)cccc5[nH]c4=O)[nH]c3c2)CC1` [Dovitinib] + O=C(O)C(=O)Nc1sc2c(c1C(=O)O)CCNC2 [TCS401] (first compound 0.1 µM, partner dose 1.66667 µM), the “cleaved PARP positive nuclei fraction” value turned out to be 61.3%.

As for `Nc1ncn([C@H]2C[C@H](O)[C@@H](CO)O2)c(=O)n1` [decitabine] + COC(=O)c1sccc1S(=O)(=O)Nc1ccc(Nc2ccccc2)cc1OC [GSK0660] (first compound 0.1 µM, partner dose 1 µM), the “cleaved PARP positive nuclei fraction” value came to 82.2%.

On to `Cc1cc(Nc2cc(N3CCN(C)CC3)nc(/C=C/c3ccccc3)n2)n[nH]1` + Cc1cc(N2CCOCC2)cc2[nH]c(-c3c(NC[C@@H](O)c4cccc(Cl)c4)cc[nH]c3=O)nc12 [BMS536924] (first compound 0.04 µM, partner dose 0.2 µM), for which the “cleaved PARP positive nuclei fraction” value turned out to be 61.9%.

Take `Cn1c(=O)n(-c2ccc(C(C)(C)C#N)cc2)c2c3cc(-c4cnc5ccccc5c4)ccc3ncc21` + NC(=O)Nc1cc(-c2cccc(F)c2)sc1C(=O)N[C@H]1CCCNC1 [AZD7762] (first compound 0.004 µM, partner dose 0.02 µM): the “cleaved PARP positive nuclei fraction” value is 45.7%.

For `C=C(c1ccc(C(=O)O)cc1)c1cc2c(cc1C)C(C)(C)CCC2(C)C` [Bexarotene] + O=C(Nc1ccccc1)c1cc([N+](=O)[O-])ccc1Cl [GW9662] (first compound 2 µM, partner dose 2 µM), the “cleaved PARP positive nuclei fraction” value amounted to 186%.

With `CNC(=O)c1cc(Oc2ccc(NC(=O)Nc3ccc(Cl)c(C(F)(F)F)c3)cc2)ccn1` [sorafenib] + COC(=O)c1sccc1S(=O)(=O)Nc1ccc(Nc2ccccc2)cc1OC [GSK0660] (first compound 0.4 µM, partner dose 1 µM), the “cleaved PARP positive nuclei fraction” value stood at 59.3%.

For `CNC(=O)c1cc(Oc2ccc(NC(=O)Nc3ccc(Cl)c(C(F)(F)F)c3)cc2)ccn1` [sorafenib] + CCCCCCCCCCCC1=C(O)C(=O)C=C(O)C1=O [Embelin] (first compound 0.4 µM, partner dose 1.2 µM), the “cleaved PARP positive nuclei fraction” value came out at 131%.

As for `CS(=O)(=O)CCNCc1ccc(-c2ccc3ncnc(Nc4ccc(OCc5cccc(F)c5)c(Cl)c4)c3c2)o1` [lapatinib] + CN(C)S(=O)(=O)c1ccc2c(c1)/C(=C/c1cc3c([nH]1)CCCC3)C(=O)N2 [SU6656] (first compound 0.8 µM, partner dose 0.4 µM), the “cleaved PARP positive nuclei fraction” value amounted to 92.4%.
